Where “and” joins values, the source holds several entries; their conditions need not be identical. Equal values may be shown once. Inconclusive results, whose numbers are uncertain, are shown with a selection of clear calls. For some of these results: Potencies of inconclusive entries are doubtful fits and often do not repeat. Calls of active or inactive are those of the source. Rule for the calls: active = hit-call score of the fitted dose curve at least 0.9, where 1 is the maximum; inconclusive = response in the unintended direction; inactive = score below 0.9.
The compounds below were run against human Elastase, ELANE (gene 1991) (UniProt P08246) (assay: NVS_ENZ_hElastase: NovaScreen (NVS) Enzymatic Assay for human Elastase (AID 2283153)).
Procedure, shortened: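 Concentration-response to 50 uM max, run singly for chemicals passing a threshold (e.g., 30% inhibition) in a duplicate 25 uM single-point screen. Neutrophil-derived human elastase, absorbance read-out of enzyme activity at 1.5 h; DMSO baseline.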

Chains of the proteins cited; added tags and fusions are not shown. Lines headed by an entry give the natural chain unless they say otherwise; changes in a name come on top.
UniProt P08246: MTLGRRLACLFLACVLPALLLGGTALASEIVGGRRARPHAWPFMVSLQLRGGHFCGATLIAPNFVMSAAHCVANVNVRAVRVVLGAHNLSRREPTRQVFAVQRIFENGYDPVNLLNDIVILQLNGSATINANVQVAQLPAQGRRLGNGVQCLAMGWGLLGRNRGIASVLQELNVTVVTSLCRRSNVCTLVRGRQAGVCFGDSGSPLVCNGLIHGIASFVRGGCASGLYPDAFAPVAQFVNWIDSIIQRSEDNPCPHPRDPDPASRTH
UniProt P54762: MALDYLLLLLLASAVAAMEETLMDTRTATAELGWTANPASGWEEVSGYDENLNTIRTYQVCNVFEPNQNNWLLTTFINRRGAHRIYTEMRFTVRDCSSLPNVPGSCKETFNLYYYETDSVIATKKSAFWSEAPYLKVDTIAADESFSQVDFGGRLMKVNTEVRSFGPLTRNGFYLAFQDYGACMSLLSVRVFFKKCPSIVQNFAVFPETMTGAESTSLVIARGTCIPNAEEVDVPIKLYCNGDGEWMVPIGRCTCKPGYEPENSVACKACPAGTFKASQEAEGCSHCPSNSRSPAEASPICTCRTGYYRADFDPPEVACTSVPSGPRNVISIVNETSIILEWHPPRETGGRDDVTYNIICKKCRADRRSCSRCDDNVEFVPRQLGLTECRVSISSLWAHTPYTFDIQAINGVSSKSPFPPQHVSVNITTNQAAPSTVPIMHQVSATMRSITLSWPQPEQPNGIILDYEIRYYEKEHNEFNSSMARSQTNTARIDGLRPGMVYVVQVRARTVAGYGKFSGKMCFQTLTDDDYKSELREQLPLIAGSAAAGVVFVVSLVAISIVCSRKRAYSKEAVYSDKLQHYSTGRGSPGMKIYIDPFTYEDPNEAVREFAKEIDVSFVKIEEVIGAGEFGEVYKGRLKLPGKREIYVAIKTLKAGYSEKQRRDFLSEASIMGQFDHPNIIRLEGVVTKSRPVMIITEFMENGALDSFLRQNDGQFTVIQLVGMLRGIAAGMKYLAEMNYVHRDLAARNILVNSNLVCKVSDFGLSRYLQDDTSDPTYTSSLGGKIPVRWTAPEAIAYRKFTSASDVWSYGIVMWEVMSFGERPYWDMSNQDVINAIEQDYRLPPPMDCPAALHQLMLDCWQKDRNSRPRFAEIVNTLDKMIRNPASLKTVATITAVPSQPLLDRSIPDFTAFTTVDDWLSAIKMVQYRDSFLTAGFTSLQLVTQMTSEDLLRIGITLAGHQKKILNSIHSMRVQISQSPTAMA
UniProt P29317, whole entry, looked up: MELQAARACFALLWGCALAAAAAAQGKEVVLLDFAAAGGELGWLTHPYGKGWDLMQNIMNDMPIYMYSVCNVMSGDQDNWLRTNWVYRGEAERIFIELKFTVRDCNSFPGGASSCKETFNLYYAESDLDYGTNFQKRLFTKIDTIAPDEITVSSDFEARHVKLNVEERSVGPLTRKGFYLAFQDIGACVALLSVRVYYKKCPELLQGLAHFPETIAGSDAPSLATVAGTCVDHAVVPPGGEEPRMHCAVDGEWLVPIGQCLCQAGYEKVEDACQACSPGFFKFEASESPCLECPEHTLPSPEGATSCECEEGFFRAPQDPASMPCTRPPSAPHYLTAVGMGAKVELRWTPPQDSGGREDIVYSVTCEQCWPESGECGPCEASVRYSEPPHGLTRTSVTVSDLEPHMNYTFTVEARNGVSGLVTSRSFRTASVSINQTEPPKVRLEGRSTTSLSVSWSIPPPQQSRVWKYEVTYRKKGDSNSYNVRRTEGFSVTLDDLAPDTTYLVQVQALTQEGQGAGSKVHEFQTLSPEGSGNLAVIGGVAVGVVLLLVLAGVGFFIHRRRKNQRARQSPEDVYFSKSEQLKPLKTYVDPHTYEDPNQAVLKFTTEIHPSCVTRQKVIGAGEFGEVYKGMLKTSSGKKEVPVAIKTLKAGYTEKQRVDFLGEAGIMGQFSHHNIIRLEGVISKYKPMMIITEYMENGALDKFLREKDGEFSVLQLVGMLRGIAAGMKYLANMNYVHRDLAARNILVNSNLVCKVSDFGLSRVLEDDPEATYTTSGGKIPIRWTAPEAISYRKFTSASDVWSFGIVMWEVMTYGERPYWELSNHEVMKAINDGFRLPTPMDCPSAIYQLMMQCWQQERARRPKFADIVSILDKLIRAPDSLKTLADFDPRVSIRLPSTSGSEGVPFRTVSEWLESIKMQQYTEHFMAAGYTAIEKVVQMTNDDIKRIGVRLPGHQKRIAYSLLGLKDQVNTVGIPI
UniProt P06276, whole entry, looked up: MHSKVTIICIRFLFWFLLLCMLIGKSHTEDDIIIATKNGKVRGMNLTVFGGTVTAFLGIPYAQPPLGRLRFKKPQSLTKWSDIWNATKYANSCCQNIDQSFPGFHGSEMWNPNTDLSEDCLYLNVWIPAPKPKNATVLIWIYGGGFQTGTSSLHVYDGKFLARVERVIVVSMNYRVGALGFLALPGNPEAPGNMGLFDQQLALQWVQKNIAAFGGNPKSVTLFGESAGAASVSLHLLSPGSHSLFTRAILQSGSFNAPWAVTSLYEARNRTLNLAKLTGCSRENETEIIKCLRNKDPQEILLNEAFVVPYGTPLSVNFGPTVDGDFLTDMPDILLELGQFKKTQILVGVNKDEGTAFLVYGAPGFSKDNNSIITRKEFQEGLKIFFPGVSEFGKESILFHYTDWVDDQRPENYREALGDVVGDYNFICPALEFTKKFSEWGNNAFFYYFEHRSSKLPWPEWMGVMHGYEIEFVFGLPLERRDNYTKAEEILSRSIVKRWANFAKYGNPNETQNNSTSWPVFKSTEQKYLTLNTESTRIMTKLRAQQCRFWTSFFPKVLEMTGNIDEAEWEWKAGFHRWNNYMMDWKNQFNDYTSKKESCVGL
UniProt P21709: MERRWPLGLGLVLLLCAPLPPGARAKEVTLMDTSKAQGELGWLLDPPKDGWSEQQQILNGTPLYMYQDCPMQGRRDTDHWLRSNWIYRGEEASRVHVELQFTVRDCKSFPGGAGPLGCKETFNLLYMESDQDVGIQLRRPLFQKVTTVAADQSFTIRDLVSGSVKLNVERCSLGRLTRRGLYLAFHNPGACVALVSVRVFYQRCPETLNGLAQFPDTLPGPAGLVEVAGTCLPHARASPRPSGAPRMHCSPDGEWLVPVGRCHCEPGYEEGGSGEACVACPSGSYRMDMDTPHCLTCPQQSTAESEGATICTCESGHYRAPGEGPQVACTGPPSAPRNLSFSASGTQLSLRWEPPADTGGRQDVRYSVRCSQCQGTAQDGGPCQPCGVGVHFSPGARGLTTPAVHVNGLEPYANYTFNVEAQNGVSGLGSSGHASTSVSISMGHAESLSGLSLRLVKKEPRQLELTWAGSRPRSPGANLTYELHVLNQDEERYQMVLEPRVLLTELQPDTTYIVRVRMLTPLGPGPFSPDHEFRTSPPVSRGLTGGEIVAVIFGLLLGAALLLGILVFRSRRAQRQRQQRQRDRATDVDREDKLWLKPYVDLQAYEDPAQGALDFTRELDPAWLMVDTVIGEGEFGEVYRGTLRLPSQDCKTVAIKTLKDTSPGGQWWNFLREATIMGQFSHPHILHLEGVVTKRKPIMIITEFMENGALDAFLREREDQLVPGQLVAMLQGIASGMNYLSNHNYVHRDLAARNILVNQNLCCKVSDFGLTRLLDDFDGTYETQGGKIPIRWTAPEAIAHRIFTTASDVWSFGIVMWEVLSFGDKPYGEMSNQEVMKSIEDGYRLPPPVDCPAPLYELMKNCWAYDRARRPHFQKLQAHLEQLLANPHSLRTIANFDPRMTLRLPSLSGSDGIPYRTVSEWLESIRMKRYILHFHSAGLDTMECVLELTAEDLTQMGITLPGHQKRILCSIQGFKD
UniProt P06241, whole entry, looked up: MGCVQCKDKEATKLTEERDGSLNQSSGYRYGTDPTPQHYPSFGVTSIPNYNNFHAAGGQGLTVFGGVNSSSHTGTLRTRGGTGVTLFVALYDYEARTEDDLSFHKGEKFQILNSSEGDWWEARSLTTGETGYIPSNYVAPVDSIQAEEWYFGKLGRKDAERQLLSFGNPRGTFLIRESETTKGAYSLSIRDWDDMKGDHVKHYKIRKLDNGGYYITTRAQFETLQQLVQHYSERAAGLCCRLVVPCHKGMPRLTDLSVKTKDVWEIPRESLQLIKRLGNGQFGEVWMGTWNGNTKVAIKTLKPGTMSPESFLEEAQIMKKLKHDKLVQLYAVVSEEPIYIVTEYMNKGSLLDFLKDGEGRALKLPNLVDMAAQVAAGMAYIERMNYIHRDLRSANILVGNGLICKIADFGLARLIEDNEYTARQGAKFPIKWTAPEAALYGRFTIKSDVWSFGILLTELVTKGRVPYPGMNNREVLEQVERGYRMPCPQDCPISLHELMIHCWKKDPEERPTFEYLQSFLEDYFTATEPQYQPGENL
UniProt O15379: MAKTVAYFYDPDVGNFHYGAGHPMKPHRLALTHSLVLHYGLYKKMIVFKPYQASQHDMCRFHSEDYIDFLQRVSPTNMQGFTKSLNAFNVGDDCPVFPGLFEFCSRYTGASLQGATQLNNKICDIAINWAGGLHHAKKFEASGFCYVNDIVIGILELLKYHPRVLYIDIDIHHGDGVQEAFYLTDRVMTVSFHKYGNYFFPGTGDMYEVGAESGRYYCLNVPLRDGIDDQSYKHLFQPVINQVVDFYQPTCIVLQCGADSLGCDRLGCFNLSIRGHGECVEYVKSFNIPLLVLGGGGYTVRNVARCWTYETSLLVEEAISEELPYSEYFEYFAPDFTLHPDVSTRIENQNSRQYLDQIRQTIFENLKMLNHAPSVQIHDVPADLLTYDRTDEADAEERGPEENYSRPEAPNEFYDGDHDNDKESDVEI
UniProt P07948: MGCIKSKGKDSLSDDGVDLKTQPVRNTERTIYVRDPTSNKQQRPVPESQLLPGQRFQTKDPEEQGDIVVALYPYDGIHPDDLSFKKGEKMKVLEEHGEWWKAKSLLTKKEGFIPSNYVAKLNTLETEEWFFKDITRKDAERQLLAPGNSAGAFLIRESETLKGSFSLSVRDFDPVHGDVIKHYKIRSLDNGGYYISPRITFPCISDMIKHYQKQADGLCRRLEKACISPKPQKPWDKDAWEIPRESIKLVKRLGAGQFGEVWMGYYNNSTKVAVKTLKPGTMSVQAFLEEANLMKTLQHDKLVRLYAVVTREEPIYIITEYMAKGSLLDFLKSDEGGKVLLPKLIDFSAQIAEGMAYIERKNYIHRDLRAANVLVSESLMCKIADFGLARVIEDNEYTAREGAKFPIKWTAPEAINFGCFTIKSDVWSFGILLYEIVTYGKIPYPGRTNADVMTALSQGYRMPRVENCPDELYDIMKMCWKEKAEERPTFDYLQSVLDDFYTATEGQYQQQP

Row | SMILES | outcome | AC50
1 | O=[N+]([O-])c1ccc(Oc2ccc(Cl)cc2Cl)cc1 | inactive | –
2 | CC1(C)C(C=C(Cl)Cl)C1C(=O)OC(C#N)c1cccc(Oc2ccccc2)c1 (stereo not drawn) | – | inconclusive: 25 µM
3 | COc1cc(-c2ccc(N)c(OC)c2)ccc1N | – | active: 20.5 µM
4 | ClC1=C(Cl)[C@]2(Cl)[C@@H]3[C@@H]4C[C@@H]([C@H]5O[C@@H]45)[C@@H]3[C@@]1(Cl)C2(Cl)Cl | – | active: 37.5 µM

These compounds were tested against human Ephrin type-B Receptor 1 (EphB1), EPHB1 (gene 2047) (UniProt P54762) (assay: NVS_ENZ_hEphB1: NovaScreen (NVS) Enzymatic Assay for human Ephrin type-B Receptor 1 (EphB1) (AID 2283154)).
Procedure, shortened: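 Recombinant EphB1 activity read by fluorescence after mobility-shift separation of product from substrate, 1 h post-dosing. Compounds screened in duplicate at 25 uM; inhibition scored as signal loss relative to DMSO.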

Row | SMILES | outcome | AC50
5 | CN=C=S | inactive | –
6 | O=C(O)COc1nc(Cl)c(Cl)cc1Cl | – | inconclusive: 25 µM
7 | CN/C(=N\[N+](=O)[O-])NCc1cnc(Cl)s1 | inactive | –
8 | C=CC1(C)OC(=O)N(c2cc(Cl)cc(Cl)c2)C1=O (stereo not drawn) | inactive | –
9 | CCCCNC(=O)OCC#CI | – | inconclusive: 25 µM
10 | O=C1c2ccccc2C(=O)N1SC(Cl)(Cl)Cl | – | inconclusive: 25 µM
11 | COc1nc(NC(C)C)nc(NC(C)C)n1 | – | inconclusive: 25 µM
12 | COc1ccc(C(c2ccc(OC)cc2)C(Cl)(Cl)Cl)cc1 | inactive | –
13 | COc1nc(C)nc(NC(=O)NS(=O)(=O)c2ccccc2Cl)n1 | – | inconclusive: 25 µM

The compounds below were run against human Ephrin type-A Receptor 2 (EphA2), EPHA2 (gene 1969) (UniProt P29317) (assay: NVS_ENZ_hEphA2: NovaScreen (NVS) Enzymatic Assay for human Ephrin type-A Receptor 2 (EphA2) (AID 2283155)).
Procedure, shortened: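 Enzyme activity of recombinant EphA2 read by fluorescence after mobility-shift separation, 1 h after dosing. Chemicals first tested at 25 uM (duplicate); those passing threshold run as concentration series, top 50 uM, single replicate, relative to DMSO.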

Row | SMILES | outcome | AC50
14 | O=[N+]([O-])/N=C1\NCCN1Cc1ccc(Cl)nc1 | inactive | –
15 | Oc1cc(Cl)ccc1Oc1ccc(Cl)cc1Cl | – | inconclusive: 25 µM
16 | O=C(O)C(F)(F)C(F)(F)C(F)(F)C(F)(F)C(F)(F)F | – | inconclusive: 25 µM

Each compound was assayed against human Esterase Plasma (ES), BCHE (gene 590) (UniProt P06276) (assay: NVS_ENZ_hES: NovaScreen (NVS) Enzymatic Assay for human Esterase Plasma (ES) (AID 2283157)).
Procedure, shortened: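 Primary single-concentration screen at 25 uM in duplicate, then concentration-response to a 50 uM top dose. Human plasma esterase activity detected colorimetrically after 0.25 h incubation, with DMSO as baseline.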

Row | SMILES | AC50 | outcome
17 | NC(=O)O | inconclusive: 25 µM | –
18 | c1ccc2c(c1)-c1cccc3cccc-2c13 | inconclusive: 25 µM | –
19 | O=P1(N(CCCl)CCCl)NCCCO1 (stereo not drawn) | – | inactive
20 | Nc1ccc(N)cc1 | – | inactive
21 | ClC1=C(Cl)[C@]2(Cl)[C@@H]3[C@@H]4C[C@@H]([C@H]5O[C@@H]45)[C@@H]3[C@@]1(Cl)C2(Cl)Cl | inconclusive: 25 µM | –
22 | Cc1ccc([N+](=O)[O-])cc1C | inconclusive: 25 µM | –

The compounds below were run against human Ephrin type-A Receptor 1 (EphA1), EPHA1 (gene 2041) (UniProt P21709) (assay: NVS_ENZ_hEphA1: NovaScreen (NVS) Enzymatic Assay for human Ephrin type-A Receptor 1 (EphA1) (AID 2283158);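 note: activity is signal loss versus DMSO meaning EphA1 kinase inhibition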).
Procedure, shortened: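 Here the EphA1 protein is recombinant and the substrate fluorescent, with electrophoretic separation before fluorescence detection at 1 hour. Signal loss against DMSO defines activity; plate controls included; follow-up concentration series reach 50 uM.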

Row | SMILES | AC50 | outcome
23 | O=C(CCl)NCO | inconclusive: 0.225 µM | –
24 | Cc1ccc2c(c1N)C(=O)c1ccccc1C2=O | active: 19.2 µM | –
25 | CC(C)Nc1ccc(Nc2ccccc2)cc1 | – | inactive
26 | Oc1cc(Cl)ccc1Oc1ccc(Cl)cc1Cl | inconclusive: 8.8 µM and inconclusive: 25 µM | –
27 | COc1cnc(OC)n2nc(NS(=O)(=O)c3c(OCC(F)F)cccc3C(F)(F)F)nc12 | – | inactive
28 | Nc1cccc2ccccc12 | inconclusive: 10.1 µM | –
29 | O=C(Cl)OCCOCCOC(=O)Cl | active: 6.6 µM | –
30 | O=[N+]([O-])c1cccc2ccccc12 | inconclusive: 25 µM | –
31 | C=C(C)C(=O)OCC1CO1 (stereo not drawn) | inconclusive: 46.7 µM | –
32 | O=C(O)C(F)(F)C(F)(F)C(F)(F)C(F)(F)C(F)(F)F | inconclusive: 12.2 µM | –
33 | O=c1oc2ccccc2c(O)c1C(CC(O)c1ccc(-c2ccc(Br)cc2)cc1)c1ccccc1 (stereo not drawn) | – | inactive

What follows are compounds tested against human FYN Proto-Oncogene, Src family Tyrosine Kinase (Fyn), FYN (gene 2534) (UniProt P06241) (assay: NVS_ENZ_hFyn: NovaScreen (NVS) Enzymatic Assay for human FYN Proto-Oncogene, Src family Tyrosine Kinase (Fyn) (AID 2283161)).
Procedure, shortened: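 Cell-free kinase activity read by fluorescence after mobility-shift separation of substrate and product, 1 h post-dose. Initial single concentration 25 uM in duplicate, then concentration-response follow-up; DMSO baseline.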

Row | SMILES | AC50 | outcome
34 | CCNS(=O)(=O)C(F)(F)C(F)(F)C(F)(F)C(F)(F)C(F)(F)C(F)(F)C(F)(F)C(F)(F)F | inconclusive: 0.42 µM | –
35 | NC(=O)O | – | inactive
36 | c1ccc2c(c1)-c1cccc3cccc-2c13 | – | inactive

The compounds below were run against Histone deacetylase 3 (Homo sapiens) (UniProt O15379) (assay: NVS_ENZ_hHDAC3: NovaScreen (NVS) Enzymatic Assay for human Histone Deacetylase 3 (HDAC3) (AID 2283163)).
Procedure, shortened: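 Cell-free enzyme format: loss of fluorescent product after mobility-shift separation, 1 h incubation, recombinant human HDAC3. Single 25 uM duplicate screen first, then concentration series to a 50 uM top for hits; DMSO as baseline.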

Row | SMILES | outcome | AC50
37 | CCNS(=O)(=O)C(F)(F)C(F)(F)C(F)(F)C(F)(F)C(F)(F)C(F)(F)C(F)(F)C(F)(F)F | inactive | –
38 | CCCCNC(=O)OCC#CI | – | active: 17.5 µM and active: 14.6 µM
39 | O=C(O)C(F)(F)C(F)(F)C(F)(F)C(F)(F)C(F)(F)F | inactive | –

The compounds below were run against human LYN Proto-Oncogene, Src family Tyrosine Kinase (LynA), LYN (gene 4067) (UniProt P07948) (assay: NVS_ENZ_hLynA: NovaScreen (NVS) Enzymatic Assay for human LYN Proto-Oncogene, Src family Tyrosine Kinase (LynA) (AID 2283173)).
Procedure, shortened: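 Recombinant kinase with fluorescent substrate; product separated from substrate by electrophoretic mobility shift and read 1 h after dosing. Duplicate screen at 25 uM, then concentration-response up to 50 uM; activity scored as signal loss against DMSO.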

Row | SMILES | AC50 | outcome
40 | CCNS(=O)(=O)C(F)(F)C(F)(F)C(F)(F)C(F)(F)C(F)(F)C(F)(F)C(F)(F)C(F)(F)F | inconclusive: 6.15 µM | –
41 | Oc1cc(Cl)ccc1Oc1ccc(Cl)cc1Cl | inconclusive: 25.5 µM | –
42 | CCCCNC(=O)OCC#CI | inconclusive: 9.52 µM | inactive
